A: 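Protease assay of ClpP1P2, read by the AMC dye that it sets free. Target: ClpP1P2, Mycobacterium tuberculosis (UniProt P9WPC5 and UniProt P9WPC3). Tested at 50 µM. Direction is inferred from only a few compounds that gave an IC50; most scored high, so higher reads as stronger inhibition. Most other retested compounds had strongly negative values. About 69,000 compounds were tested under these conditions; 0.015% (about 10) showed 50% or more at least once.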
B: 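Assay of Toxoplasma gondii numbers, read through their beta-galactosidase reporter with a colour substrate. Compounds at 10 µM. The record gives no direction; the compounds picked for IC50 retests had high values, so higher reads as fewer parasites. Of about 67,000 compounds tested this way, about 260 (0.38%) reached 50% or more in at least one test.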
C: 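Enzyme assay of histidyl-tRNA synthetase; the read-out is not stated. Target: Histidine-tRNA ligase, Trypanosoma cruzi CL Brener (UniProt Q4DA54). Concentration: 30 µM. The record gives no direction; compounds that gave an IC50 in retests scored well above the rest, so higher reads as stronger inhibition. Of about 69,000 compounds tested this way, about 31 (0.045%) reached 50% or more in at least one test.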
D: 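Enzyme assay of the thioesterase domain of polyketide synthase 13; the read-out is not stated. Target: Polyketide synthase Pks13, Mycobacterium tuberculosis (UniProt I6X8D2). Concentration: 30 µM. The record gives no direction; the compounds picked for IC50 retests had high values, so higher reads as stronger inhibition. Of about 67,000 compounds tested this way, about 300 (0.46%) reached 50% or more in at least one test.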
E: 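Enzyme assay of the cytosolic lysyl-tRNA synthetase in 384-well plates, read by luminescence. Target: Lysine-tRNA ligase, Plasmodium falciparum 3D7 (UniProt Q8IDJ8). Concentration: 30 µM. Direction is inferred from only a few compounds that gave an IC50; most scored high, so higher reads as stronger inhibition. Size under these conditions: about 69,000 compounds, about 49 of them at 50% or above in at least one test.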

Amino acid sequences for entries named in this document (tags omitted). Residues count along the entry.
UniProt P9WPC5, whole entry: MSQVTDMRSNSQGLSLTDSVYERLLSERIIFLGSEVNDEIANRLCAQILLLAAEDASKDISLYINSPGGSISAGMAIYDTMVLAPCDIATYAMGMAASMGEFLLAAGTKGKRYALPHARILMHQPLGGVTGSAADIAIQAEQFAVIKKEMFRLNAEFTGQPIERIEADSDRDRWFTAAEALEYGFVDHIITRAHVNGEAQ
UniProt P9WPC3, whole entry partner: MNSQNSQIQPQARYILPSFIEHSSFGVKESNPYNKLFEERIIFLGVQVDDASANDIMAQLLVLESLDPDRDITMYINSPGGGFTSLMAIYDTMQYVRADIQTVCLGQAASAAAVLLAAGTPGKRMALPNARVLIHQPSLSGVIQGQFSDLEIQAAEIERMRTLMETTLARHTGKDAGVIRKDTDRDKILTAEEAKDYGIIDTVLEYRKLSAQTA
UniProt Q4DA54, 1-478: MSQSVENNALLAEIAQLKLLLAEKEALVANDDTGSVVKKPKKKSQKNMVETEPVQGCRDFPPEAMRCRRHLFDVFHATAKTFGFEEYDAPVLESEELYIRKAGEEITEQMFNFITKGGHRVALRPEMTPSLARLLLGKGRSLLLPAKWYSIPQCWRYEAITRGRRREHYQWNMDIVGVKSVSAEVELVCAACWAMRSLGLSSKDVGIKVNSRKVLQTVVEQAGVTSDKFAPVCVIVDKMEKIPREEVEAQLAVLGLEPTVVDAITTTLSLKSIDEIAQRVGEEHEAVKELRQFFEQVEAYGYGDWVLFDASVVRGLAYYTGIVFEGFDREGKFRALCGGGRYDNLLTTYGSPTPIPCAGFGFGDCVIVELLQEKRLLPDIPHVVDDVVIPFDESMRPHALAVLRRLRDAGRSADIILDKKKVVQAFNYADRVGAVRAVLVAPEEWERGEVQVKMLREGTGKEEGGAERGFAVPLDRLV
UniProt I6X8D2, whole entry: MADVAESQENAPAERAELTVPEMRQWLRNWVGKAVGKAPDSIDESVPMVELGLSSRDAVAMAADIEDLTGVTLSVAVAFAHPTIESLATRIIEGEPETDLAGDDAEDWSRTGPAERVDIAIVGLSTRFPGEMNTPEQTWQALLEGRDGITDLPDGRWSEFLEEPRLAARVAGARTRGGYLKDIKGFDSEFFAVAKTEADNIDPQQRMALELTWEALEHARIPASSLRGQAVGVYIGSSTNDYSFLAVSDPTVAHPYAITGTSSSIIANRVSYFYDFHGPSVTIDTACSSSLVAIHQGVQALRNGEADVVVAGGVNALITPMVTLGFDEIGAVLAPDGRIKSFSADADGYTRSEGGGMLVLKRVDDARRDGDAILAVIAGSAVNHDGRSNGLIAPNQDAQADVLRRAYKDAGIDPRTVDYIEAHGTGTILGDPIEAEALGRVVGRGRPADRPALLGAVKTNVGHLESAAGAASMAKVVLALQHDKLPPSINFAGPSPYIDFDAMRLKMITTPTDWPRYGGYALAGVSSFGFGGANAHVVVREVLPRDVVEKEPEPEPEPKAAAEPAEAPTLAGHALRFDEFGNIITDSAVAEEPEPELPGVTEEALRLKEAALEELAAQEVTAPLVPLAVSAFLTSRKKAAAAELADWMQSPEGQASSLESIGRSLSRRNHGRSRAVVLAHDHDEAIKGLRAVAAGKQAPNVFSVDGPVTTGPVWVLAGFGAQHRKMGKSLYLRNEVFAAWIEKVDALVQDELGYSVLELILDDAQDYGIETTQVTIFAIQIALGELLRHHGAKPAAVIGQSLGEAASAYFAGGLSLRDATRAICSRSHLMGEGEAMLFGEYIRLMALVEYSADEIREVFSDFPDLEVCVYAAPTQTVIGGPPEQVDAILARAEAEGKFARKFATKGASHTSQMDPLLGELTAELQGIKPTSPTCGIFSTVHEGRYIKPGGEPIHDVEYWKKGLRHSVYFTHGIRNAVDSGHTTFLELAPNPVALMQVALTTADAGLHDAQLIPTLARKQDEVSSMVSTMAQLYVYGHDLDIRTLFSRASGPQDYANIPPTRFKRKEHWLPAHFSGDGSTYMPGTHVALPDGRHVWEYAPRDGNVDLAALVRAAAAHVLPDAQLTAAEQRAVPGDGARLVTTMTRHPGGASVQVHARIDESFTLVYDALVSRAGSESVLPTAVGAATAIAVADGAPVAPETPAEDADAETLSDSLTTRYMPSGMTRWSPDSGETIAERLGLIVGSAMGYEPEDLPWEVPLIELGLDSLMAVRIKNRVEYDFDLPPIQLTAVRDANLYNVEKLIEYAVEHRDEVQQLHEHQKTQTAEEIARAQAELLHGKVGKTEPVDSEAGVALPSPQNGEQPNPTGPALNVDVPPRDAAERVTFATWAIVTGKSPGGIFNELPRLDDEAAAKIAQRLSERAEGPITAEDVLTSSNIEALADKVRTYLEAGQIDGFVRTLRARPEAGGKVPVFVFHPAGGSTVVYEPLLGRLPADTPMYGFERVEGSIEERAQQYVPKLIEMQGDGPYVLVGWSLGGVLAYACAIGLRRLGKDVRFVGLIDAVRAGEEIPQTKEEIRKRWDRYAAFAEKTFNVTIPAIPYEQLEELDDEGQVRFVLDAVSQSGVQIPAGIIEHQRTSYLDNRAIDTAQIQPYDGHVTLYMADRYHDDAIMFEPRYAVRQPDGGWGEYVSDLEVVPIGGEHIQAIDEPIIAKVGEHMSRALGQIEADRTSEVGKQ
UniProt Q8IDJ8, 1-583: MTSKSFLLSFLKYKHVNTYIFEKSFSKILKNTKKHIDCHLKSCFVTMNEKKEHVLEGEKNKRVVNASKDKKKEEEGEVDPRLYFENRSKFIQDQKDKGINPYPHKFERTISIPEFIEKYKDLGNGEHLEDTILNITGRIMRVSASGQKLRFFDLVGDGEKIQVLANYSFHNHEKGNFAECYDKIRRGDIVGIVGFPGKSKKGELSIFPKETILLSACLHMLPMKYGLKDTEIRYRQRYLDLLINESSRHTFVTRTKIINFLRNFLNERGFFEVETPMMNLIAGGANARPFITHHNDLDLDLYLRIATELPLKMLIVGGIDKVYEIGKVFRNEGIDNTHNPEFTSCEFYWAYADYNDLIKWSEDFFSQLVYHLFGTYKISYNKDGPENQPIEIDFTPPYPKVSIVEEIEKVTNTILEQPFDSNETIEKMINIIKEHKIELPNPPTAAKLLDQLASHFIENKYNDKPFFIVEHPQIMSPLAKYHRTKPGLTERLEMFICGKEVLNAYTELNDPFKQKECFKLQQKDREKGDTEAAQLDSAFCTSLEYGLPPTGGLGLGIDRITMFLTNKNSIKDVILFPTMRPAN

Results are given as percent effect. The record does not define 0% and 100%; most values in the screen are far below 50% and negative numbers occur (in some assays of this library far below -100). Compounds were drawn at random from those tested, without regard to their results.

O=C([C@H]1COC[C@H]2CN(C3CCCCC3)C[C@H]21)N1CCOCC1 gave A: 2.056%; C: 3.093%; D: -6.97%; E: 7.433%. Cc1cc(C(=O)NCC(c2ccsc2)N(C)C)no1 (stereo not given) read A: -9.583%; B: -9.783%; C: 4.651%; D: 2.253%; E: -0.5379%. With O=C(c1cccnc1)N1C[C@@H]2CC[C@H](C1)N(Cc1cccc(Cl)c1F)C2 the screen gave A: 0.01293%; C: 4.959%; D: -10.73%; E: 2.747%. Cc1nccn1C1CCCN(C(=O)c2ccc3c(c2)nc(C)n3C)C1 (stereo not given) gave A: -25.48%; B: -9.611%; C: 4.046%; D: -6.677%; E: -0.2229%.

CN(C)Cc1nnc(C2CCN(c3ncccc3Cl)CC2)n1C1CC1 read A: 8.925%; B: 24.5%; C: 1.058%; D: 3.756%; E: -0.7425%. Cc1noc([C@]23COC[C@H]2CN(C(=O)CN(C)C)C3)n1 read A: -12.48%; C: 5.525%; D: -9.292%; E: 3.389%. CCN1CCC2(CN(C(C)=O)CC23CCN(CC2CC2)CC3)C1=O.O=C(O)C(F)(F)F (stereo not given) gave B: 2.086%. With [H][C@@]12CCN(Cc3nccs3)C[C@@]1([H])O[C@H](C)C2 the screen gave B: 0.4787%.

Result for CC(NC(=O)NC1CCN(Cc2ccncc2)CC1)c1cccc(F)c1 (stereo not given) was A: 6.774%; B: 1.725%; C: 9.524%; D: -2.182%; E: 3.775%. With COc1ccc(COCC(O)CN(C)c2ccc(C)cc2C)cc1 (stereo not given) the screen gave A: -8.869%; B: 0.1282%; C: 2.618%; D: -8.616%; E: 0.4568%. Result for Cn1cc(C(=O)N2CCCC(n3cccn3)C2)c2ccccc21 (stereo not given) was A: -6.481%; B: 2.731%; C: -0.3774%; D: -7.933%; E: -3.17%. Cc1ccc(N2CCCN(C(=O)c3n[nH]c4c3CCC4)CC2)nn1 gave A: -5.009%; B: 0.918%; C: 0.5525%; D: -12.39%; E: 1.073%.

With O=C(O)C(F)(F)F.[H][C@@]12C[C@H](C(=O)NCc3ccccc3)[C@@]([H])(CN(CCC(C)C)C1)O2 the screen gave B: 6.718%. CN(C)c1ncc(CN2CCC(c3nnsc3S(C)(=O)=O)CC2)cn1 gave A: -9.514%; B: -3.523%; C: 2.703%; D: -22.56%; E: 0.5741%. Result for CCOC(=O)C1CN(CC2CC2)Cc2ncn(CC)c21.O=C(O)C(F)(F)F (stereo not given) was B: -2.331%. COCC(=O)N1CCN(S(=O)(=O)c2ccccc2)[C@H]2CS(=O)(=O)C[C@H]21 read A: -7.263%; C: 6%; D: 1.67%; E: 2.658%.

CN(C)CCN(Cc1ccc(C#N)cc1)C(=O)c1ccn(C)c(=O)c1 read A: 2.102%; B: 31.83%; C: 4.464%; D: -16.57%; E: -0.1236%. Result for C[C@@H]1CN(C(=O)C2CCOCC2)C[C@]12CCN(c1cccnc1)C2=O was A: -0.3676%; C: 1.149%; D: 4.89%; E: 1.291%. Result for CC(C)c1nc(CN2CCN(CC3CCCO3)CC2)cs1 (stereo not given) was A: 10.03%; B: -7.147%; C: -1.132%; D: -13.83%; E: 4.421%. For O=C1CC(c2cccnc2)c2c(c(C(=O)O)cn2-c2ccccc2F)N1 (stereo not given) the result was A: -16.89%; B: 3.908%; C: 3.96%; D: -16.85%; E: 6.366%.

CNC(=O)NC(=O)CCN1CCN(c2ccc(C(=O)OC)cc2)CC1C (stereo not given) read A: -30.51%; B: 19.45%; C: 2.312%; D: -3.074%; E: -0.3039%. Result for O=C(O)C(F)(F)F.O=C(O)C(F)(F)F.[H][C@@]12CCC(=O)N(c3cnn(C)c3)[C@]1([H])CCN2CCc1ccccc1 was B: 25.56%. COc1ccc2c(c1)CCCC2CC(=O)NCC(=O)O (stereo not given) gave A: 13.17%; B: 3.058%; C: 0%; D: 10.86%; E: -2.749%. Result for O=C(NCCN1CCOCC1)NCc1cccnc1-n1cccn1 was A: 2.804%; B: 3.002%; C: 4.865%; D: -18.06%; E: 4.835%.

With Cc1ccc(CN2CCC(F)(F)C3(CCN(c4cnccn4)C3)C2)o1.O=C(O)C(F)(F)F.O=C(O)C(F)(F)F (stereo not given) the screen gave B: 2.532%. N#Cc1csc(CN(CC(=O)N2CCCC2)CC2CCCO2)c1 (stereo not given) gave A: -5.086%; B: 9.469%; C: 2.703%; D: -21.06%; E: 1.845%. For CN(Cc1ccc(O)cc1)C(=O)NCc1nnc2n1CCCCC2 the result was A: -5.291%; B: 7.423%; C: 1.744%; D: -2.956%; E: -0.606%.

Once more, the final 3:

Cc1ccc(CN2CCC(F)(F)C3(CCN(c4cnccn4)C3)C2)o1.O=C(O)C(F)(F)F.O=C(O)C(F)(F)F (stereo not given) read B: 2.532%.
N#Cc1csc(CN(CC(=O)N2CCCC2)CC2CCCO2)c1 (stereo not given) read A: -5.086%; B: 9.469%; C: 2.703%; D: -21.06%; E: 1.845%.
CN(Cc1ccc(O)cc1)C(=O)NCc1nnc2n1CCCCC2 read A: -5.291%; B: 7.423%; C: 1.744%; D: -2.956%; E: -0.606%.

The values are deposited in ChEMBL (CHEMBL3988442, “University of Dundee, Small-Polar-MMV Screening Library” (2021)).